According to patent US5798442A (Merck Frosst Canada, Inc., priority 1995, dated 1998):

Test: general procedure: solution-phase peptide synthesis; EDCI/HOBt

Substance | step yield (late stage modification step) [%] | step yield (coupling step) [%]
N-(N-Acetyl-L-aspartyl-L-glutamyl-L-valinyl)-3-amino-3-formylpropionic acid | 47 | 
N-Ac-Asp-(Bz)-Glu(Bz)-Val-Asp(di-bz) |  | 94
N-Ac-Asp-Glu-Val-Asp | 93 | 
